Laboratory results as given in article PMC8604998.
These are yes or no findings as the source states them, for the method shown. Binding seen in cells or lysates may run through a third protein. Some binding calls cover weakened binding; strength is not graded here.

Protein sequences, listed by entry. Tags and fused reporters are not part of them.
UniProt Q9UJY4: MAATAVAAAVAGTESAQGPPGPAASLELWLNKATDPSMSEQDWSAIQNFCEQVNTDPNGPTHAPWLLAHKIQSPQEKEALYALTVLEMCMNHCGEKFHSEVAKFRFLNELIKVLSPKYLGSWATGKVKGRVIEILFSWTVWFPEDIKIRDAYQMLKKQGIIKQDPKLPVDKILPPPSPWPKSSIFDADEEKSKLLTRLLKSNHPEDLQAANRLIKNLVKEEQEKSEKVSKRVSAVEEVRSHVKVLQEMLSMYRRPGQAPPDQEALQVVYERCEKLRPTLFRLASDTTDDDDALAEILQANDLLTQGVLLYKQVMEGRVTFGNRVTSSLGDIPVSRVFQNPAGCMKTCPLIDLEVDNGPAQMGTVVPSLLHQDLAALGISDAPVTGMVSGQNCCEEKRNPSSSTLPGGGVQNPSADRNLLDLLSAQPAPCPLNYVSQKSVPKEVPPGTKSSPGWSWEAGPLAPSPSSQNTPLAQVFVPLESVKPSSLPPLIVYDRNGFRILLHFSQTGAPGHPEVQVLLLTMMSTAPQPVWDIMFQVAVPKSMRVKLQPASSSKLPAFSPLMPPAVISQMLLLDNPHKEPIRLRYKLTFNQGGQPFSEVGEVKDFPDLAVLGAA

How the values were obtained:
[1] = target: epidermal growth factor receptor (EGFR), endogenous in ARPE-19 cells (human (endogenous in ARPE-19)) (UniProt P00533); experiment: proximity ligation; PLA in fixed ARPE-19 and H1975 cells with pairs of antibodies (anti-γ1-adaptin or anti-GGA2 with anti-EGFR; AP-1 with CIMPR, β-COP or Sec24B); also after EGF treatment and in cells transfected with GFP-Rab11a or GFP-Rab5a
[2] = target: epidermal growth factor receptor (EGFR) L858R/T790M, endogenous in H1975 cells (human (endogenous in H1975)) (UniProt P00533); experiment: co-IP; ARPE-19 and H1975 lysates (PBS, 1% Triton X-100); sepharose beads conjugated with anti-EGFR or control IgG, 20-24 h at 4 °C, six washes; western blotting of bound proteins
[3] = target: epidermal growth factor receptor (EGFR), endogenous in ARPE-19 cells (human (endogenous in ARPE-19)) (UniProt P00533); experiment: as above

binding [1]: binds | binding [2]: binds | binding [3]: binds
Substance: Golgi-localized, γ-adaptin ear-containing, ADP ribosylation factor-binding protein 2 (GGA2) (from UniProt Q9UJY4 1-613)
